Results deposited as PubChem BioAssay AID686943 (Drosophila RNAi Screening Center, 2013)
The screen tested about 23,000 reagents; this is an unselected part of those with a known target gene and a result. 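Extra replicates exist only for a retested subset of genes; insulin dose and duration not given; both raised and lowered dpERK matter.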 The record does not give: the amount of reagent, the time to read-out.

Assay: 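Knockdowns that increase or decrease active ERK after insulin receptor stimulation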 (primary screen)
Cells: Drosophila S2R+ haemocyte-like cells expressing YFP-tagged ERK (Rolled)
Knock-down reagent: long dsRNA against Drosophila genes
Challenge: insulin stimulation versus unstimulated cells; dose and duration not given
Measured: 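Per-plate z-scores of phospho-ERK immunostaining normalised to YFP-tagged ERK, measured with and without insulin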
Reading the numbers: replicate 1, z-score of dpERK with insulin and replicate 2, z-score of dpERK with insulin: higher = more active ERK per ERK-YFP after insulin; replicate 1, z-score of dpERK under basal conditions: higher = more basal active ERK per ERK-YFP; replicate 1, z-score of ERK-YFP with insulin: higher = more YFP-tagged ERK signal

no.	gene	DRSC id	replicate 1, z-score of dpERK with insulin	replicate 2, z-score of dpERK with insulin	replicate 1, z-score of dpERK under basal conditions	replicate 1, z-score of ERK-YFP with insulin
1	apt (GeneID 37734)	DRSC04671	-3.41	-4.47	-0.43	2.27
2	CG10877 (GeneID 42432)	DRSC14274	-0.17	0.51	0.37	0.46
3	CG9338 (GeneID 35357)	DRSC03213	0.44	0.07	-0.88	0.12
4	CG31952 (GeneID 326179)	DRSC00428	-0.4	0.06	-0.11	0.87
5	CG31952 (GeneID 326179)	DRSC21997	-0.32	0.43	-1.68	1.82
6	enok (GeneID 37859)	DRSC04096	0.35	0.5	-0.27	0.09
7	CG8117 (GeneID 32499)	DRSC20082	-0.42	-1.27	-1.82	-0.91
8	Rpp21 (GeneID 318857)	DRSC22480	0.06	0.13	-0.68	0.25
9	CG13258 (GeneID 34959)	DRSC02244	0.09	0.1	-0.19	-0.24
10	Gas41 (GeneID 33973)	DRSC03156	-0.32	-0.63	-0.01	-0.16
11	CG34051 (GeneID 3885660)	DRSC01739	0.48	-0.9	1.53	0.17
12	CG14960 (GeneID 38403)	DRSC08419	0.32	-0.17	-1.01	0.25
13	ProtA (GeneID 34866)	DRSC03372	-0.21	-0.1	-0.79	0.05
14	CG15605 (GeneID 36933)	DRSC06558	-0.17	0.82	-0.38	0.71
15	Fum4 (GeneID 318995)	DRSC22577	-0.11	0.56	0.32	-0.75
16	AttA (GeneID 36636)	DRSC05926	-0.27	-0.35	0.17	0.34
17	CG4073 (GeneID 41284)	DRSC15542	0.36	0.31	-0.53	-0.03
18	CG10185 (GeneID 41953)	DRSC14205	0.48	0.37	-0.83	0
19	CG5958 (GeneID 34022)	DRSC02915	-0.13	-0.41	0.06	-2.65
20	CG5539 (GeneID 37766)	DRSC04510	0.26	-0.4	-0.37	0.4
21	fmt (GeneID 38714)	DRSC09717	-0.31	-0.01	0.96	0.09
22	CR42546 (GeneID 8674079)	DRSC03711	-0.23	0.2	-0.44	0.35
23	Rbp9 (GeneID 33498)	DRSC00416	0.08	-0.35	1.61	-0.08
24	Rbp9 (GeneID 33498)	DRSC00779	1.17	0.43	0.26	-0.08
25	CG1999 (GeneID 31671)	DRSC18199	-0.61	-1.06	1.14	0.33
26	CG6891 (GeneID 32865)	DRSC20016	-0.08	-1.23	-1.43	0.55
27	Gasz (GeneID 35795)	DRSC06829	-0.11	0.04	0.16	0.57
28	CG13743 (GeneID 35911)	DRSC05139	1.22	0.91	0.37	0.33
29	CG13743 (GeneID 35911)	DRSC06414	-0.14	-0.28	-1.03	0.32
30	CG13743 (GeneID 35911)	DRSC22775	2.14	0.41	-0.15	-0.65
31	capt (GeneID 45233)	DRSC00676	0.74	1.43	0.12	-0.31
32	capt (GeneID 45233)	DRSC00806	0.43	-0.63	-0.34	-0.4
33	CG14410 (GeneID 32409)	DRSC19596	0.95	0.69	-0.27	0.8
34	CR18275 (GeneID 8674032)	DRSC18151	1.36	0	-0.64	-0.36
35	spn-E (GeneID 41919)	DRSC17064	0.08	0.38	-0.42	0.74
36	CG13177 (GeneID 5740215)	DRSC06303	-0.15	-1.25	1.02	-0.03
37	Cf2 (GeneID 33692)	DRSC00744	-5.47	-3.32	-3.89	-3.66
38	Ask1 (GeneID 42366)	DRSC16789	0.85	0.5	0.47	-0.08
39	Ask1 (GeneID 42366)	DRSC21697	1.25	0.8	0.25	-0.95

An excerpt taken from the entries so far, as a working copy:
no.	gene	DRSC id	replicate 1, z-score of dpERK with insulin	replicate 2, z-score of dpERK with insulin	replicate 1, z-score of dpERK under basal conditions	replicate 1, z-score of ERK-YFP with insulin
26	CG6891 (GeneID 32865)	DRSC20016	-0.08	-1.23	-1.43	0.55
27	Gasz (GeneID 35795)	DRSC06829	-0.11	0.04	0.16	0.57
28	CG13743 (GeneID 35911)	DRSC05139	1.22	0.91	0.37	0.33
29	CG13743 (GeneID 35911)	DRSC06414	-0.14	-0.28	-1.03	0.32
30	CG13743 (GeneID 35911)	DRSC22775	2.14	0.41	-0.15	-0.65

Further records follow:
no.	gene	DRSC id	replicate 1, z-score of dpERK with insulin	replicate 2, z-score of dpERK with insulin	replicate 1, z-score of dpERK under basal conditions	replicate 1, z-score of ERK-YFP with insulin
40	CG42329 (GeneID 33312)	DRSC00373	0.34	-0.19	-0.05	0.26
41	CG42329 (GeneID 33312)	DRSC00682	-0.71	-0.29	0.24	-0.25
42	CG40378 (retired record) (GeneID 3355048)	DRSC20958	-0.38	0.47	0.98	-0.71
43	CG40378 (retired record) (GeneID 3355048)	DRSC22174	0.16	0.14	0.58	0.52
44	CG17121 (GeneID 42721)	DRSC15176	2.28	-0.27	0.74	-0.08
45	Polr2H (GeneID 40415)	DRSC11642	2.54	1.88	-1.86	-2.4
46	Arfip (GeneID 41353)	DRSC15179	-0.13	0.43	0.52	0.55
47	Cyp6d4 (GeneID 42682)	DRSC16633	1.5	-0.19	-0.87	0.76
48	Trhn (GeneID 38121)	DRSC08621	0.41	-0.26	1.17	-0.45
49	CG13978 (GeneID 43303)	DRSC14720	-0.15	-0.13	-0.24	0.52
50	CG8100 (GeneID 39565)	DRSC10961	0.21	0.23	-0.06	0.26
51	orb (GeneID 42752)	DRSC17021	-4.79	-4.87	-5.01	1.08
52	shakB (GeneID 33062)	DRSC20420	0.26	0.58	1.24	-0.71
53	shakB (GeneID 33062)	DRSC20423	0.89	0.08	0.91	0.05
54	shakB (GeneID 33062)	DRSC20492	0.56	0.5	0.23	0.05
55	shakB (GeneID 33062)	DRSC20585	1.05	-0.09	-0.67	0.42
56	shakB (GeneID 33062)	DRSC21445	-1.09	-0.83	1.05	0.74
57	shakB (GeneID 33062)	DRSC22817	0.62	0.23	0.25	1.92
58	CG30458 (GeneID 246624)	DRSC06660	1.84	0.36	0.35	-0.47
59	ppk7 (GeneID 33886)	DRSC03236	0.53	0.08	0.26	-1.73
60	CG31661 (GeneID 33330)	DRSC00296	-0.68	-0.62	0	0.48
61	Mgat1 (GeneID 37323)	DRSC07463	-0.36	0.01	0.66	-0.15
62	CG33128 (GeneID 326263)	DRSC00294	-0.11	-0.1	-0.1	0.01
63	fne (GeneID 32245)	DRSC20332	-3.3	-1.9	1.28	0.77
64	fne (GeneID 32245)	DRSC22418	-0.52	-0.24	-0.98	0.94
65	CG30271 (GeneID 246518)	DRSC04170	-0.2	0.75	-0.43	0.7
66	Dhc64C (GeneID 38580)	DRSC08656	0.64	-0.4	0.88	0.17
67	CG4045 (GeneID 31176)	DRSC18518	0.92	-0.2	-0.12	0.34
68	CG13933 (GeneID 38227)	DRSC08402	1.34	0.08	-0.05	0.25
69	bon (GeneID 44235)	DRSC16914	-0.61	-0.87	-0.56	0.47
70	opm (GeneID 32435)	DRSC20141	0.41	1.09	-0.32	0.47
71	opm (GeneID 32435)	DRSC22135	2.74	0.81	1.07	-0.19
72	CG42241 (retired record) (GeneID 7354372)	DRSC04007	-0.01	-0.35	0.19	-0.27
73	tut (GeneID 317996)	DRSC08909	-0.89	-0.03	1.14	-0.1
